Measurements reported in the supplement of paper PMC11006884.
This list holds what a sample rich in targets with a hit left over. This is a noisy data set. This is a selection; strong and weak results do not stand in their true shares.

Amino acid sequences for entries named in this document (tags omitted). A change or cut given only in a name is not applied to a line headed by its entry.
UniProt O95639, whole entry, looked up: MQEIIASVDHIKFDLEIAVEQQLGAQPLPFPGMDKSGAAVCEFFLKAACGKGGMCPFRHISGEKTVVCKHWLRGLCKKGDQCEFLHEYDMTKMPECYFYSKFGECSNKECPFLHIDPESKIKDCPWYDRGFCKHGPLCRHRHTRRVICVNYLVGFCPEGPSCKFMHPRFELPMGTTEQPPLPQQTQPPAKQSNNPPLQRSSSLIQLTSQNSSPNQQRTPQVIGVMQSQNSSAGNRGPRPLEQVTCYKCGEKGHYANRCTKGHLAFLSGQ
UniProt O95243: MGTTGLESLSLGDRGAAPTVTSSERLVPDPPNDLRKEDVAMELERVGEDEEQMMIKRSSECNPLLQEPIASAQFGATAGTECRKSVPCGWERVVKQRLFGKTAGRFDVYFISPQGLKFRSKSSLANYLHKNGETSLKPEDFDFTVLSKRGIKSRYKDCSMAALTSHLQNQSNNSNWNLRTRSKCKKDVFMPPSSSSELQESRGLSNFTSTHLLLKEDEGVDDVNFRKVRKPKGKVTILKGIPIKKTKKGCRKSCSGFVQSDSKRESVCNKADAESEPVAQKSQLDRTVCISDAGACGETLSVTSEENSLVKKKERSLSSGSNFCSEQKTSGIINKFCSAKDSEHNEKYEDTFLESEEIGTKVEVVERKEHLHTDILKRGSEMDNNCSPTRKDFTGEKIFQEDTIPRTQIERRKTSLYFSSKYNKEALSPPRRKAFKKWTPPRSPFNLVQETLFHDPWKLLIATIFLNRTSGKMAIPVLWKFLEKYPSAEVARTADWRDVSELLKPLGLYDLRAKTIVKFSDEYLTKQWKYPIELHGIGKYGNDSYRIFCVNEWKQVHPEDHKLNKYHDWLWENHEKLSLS
UniProt O95218: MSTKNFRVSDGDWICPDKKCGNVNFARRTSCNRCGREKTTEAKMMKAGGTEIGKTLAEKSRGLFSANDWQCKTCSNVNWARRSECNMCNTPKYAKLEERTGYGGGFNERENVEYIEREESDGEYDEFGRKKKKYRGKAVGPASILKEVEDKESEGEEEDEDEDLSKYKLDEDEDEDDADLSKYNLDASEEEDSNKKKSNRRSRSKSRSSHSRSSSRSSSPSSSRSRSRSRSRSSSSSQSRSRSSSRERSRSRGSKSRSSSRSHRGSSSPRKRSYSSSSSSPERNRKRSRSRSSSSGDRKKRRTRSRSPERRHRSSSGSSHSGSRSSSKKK
UniProt O94763, whole entry, looked up: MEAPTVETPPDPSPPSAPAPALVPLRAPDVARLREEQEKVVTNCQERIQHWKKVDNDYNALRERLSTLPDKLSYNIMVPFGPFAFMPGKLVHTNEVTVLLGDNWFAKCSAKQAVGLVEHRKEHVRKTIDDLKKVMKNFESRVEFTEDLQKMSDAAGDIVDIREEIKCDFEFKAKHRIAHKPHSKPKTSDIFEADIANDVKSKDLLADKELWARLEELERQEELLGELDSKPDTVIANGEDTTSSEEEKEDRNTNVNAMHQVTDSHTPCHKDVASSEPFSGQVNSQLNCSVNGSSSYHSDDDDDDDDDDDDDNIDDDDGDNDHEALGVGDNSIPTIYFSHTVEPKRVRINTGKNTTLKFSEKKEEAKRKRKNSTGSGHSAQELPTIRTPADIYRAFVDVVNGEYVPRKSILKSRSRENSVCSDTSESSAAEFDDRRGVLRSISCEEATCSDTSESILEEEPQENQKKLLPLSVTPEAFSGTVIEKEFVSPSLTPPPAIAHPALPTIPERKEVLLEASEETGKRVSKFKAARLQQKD
UniProt O95239: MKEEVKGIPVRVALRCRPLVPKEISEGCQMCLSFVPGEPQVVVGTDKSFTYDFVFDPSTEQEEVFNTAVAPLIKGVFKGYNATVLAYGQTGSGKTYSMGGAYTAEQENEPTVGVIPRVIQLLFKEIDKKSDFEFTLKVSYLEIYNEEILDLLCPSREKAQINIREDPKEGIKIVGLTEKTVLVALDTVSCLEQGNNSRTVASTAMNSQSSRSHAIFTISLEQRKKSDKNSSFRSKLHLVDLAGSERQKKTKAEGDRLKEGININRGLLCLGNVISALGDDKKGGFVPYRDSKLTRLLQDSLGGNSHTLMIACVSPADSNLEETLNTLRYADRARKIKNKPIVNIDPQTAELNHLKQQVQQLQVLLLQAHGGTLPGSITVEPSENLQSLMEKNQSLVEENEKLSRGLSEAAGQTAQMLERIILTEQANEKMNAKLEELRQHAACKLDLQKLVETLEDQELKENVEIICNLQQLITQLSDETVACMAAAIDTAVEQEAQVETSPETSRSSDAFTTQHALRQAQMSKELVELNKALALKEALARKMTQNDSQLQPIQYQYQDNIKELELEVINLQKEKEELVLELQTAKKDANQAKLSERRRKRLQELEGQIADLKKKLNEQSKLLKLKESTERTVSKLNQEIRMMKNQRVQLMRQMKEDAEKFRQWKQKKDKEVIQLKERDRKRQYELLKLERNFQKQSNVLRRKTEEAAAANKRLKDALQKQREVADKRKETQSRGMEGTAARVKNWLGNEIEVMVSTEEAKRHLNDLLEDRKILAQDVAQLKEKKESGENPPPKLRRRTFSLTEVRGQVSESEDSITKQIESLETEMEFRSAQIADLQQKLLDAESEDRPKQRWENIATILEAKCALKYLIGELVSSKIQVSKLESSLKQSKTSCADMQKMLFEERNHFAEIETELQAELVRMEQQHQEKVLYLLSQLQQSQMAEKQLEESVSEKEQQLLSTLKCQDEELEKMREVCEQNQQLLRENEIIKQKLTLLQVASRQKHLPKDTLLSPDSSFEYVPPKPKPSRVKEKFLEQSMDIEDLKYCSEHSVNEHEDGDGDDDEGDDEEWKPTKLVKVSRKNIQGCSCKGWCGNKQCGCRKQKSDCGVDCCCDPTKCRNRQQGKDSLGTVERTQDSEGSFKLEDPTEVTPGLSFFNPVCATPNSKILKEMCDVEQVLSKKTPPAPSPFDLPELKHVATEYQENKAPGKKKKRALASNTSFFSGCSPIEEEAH
UniProt P05141: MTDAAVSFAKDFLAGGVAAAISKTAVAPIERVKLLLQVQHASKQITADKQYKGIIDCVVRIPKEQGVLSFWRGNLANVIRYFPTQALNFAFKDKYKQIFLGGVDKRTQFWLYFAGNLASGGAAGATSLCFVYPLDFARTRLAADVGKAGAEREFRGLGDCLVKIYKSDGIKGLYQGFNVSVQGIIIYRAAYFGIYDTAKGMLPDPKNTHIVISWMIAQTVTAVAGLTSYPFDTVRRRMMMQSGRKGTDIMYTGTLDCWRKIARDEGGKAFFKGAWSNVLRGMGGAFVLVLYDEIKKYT
UniProt O95573: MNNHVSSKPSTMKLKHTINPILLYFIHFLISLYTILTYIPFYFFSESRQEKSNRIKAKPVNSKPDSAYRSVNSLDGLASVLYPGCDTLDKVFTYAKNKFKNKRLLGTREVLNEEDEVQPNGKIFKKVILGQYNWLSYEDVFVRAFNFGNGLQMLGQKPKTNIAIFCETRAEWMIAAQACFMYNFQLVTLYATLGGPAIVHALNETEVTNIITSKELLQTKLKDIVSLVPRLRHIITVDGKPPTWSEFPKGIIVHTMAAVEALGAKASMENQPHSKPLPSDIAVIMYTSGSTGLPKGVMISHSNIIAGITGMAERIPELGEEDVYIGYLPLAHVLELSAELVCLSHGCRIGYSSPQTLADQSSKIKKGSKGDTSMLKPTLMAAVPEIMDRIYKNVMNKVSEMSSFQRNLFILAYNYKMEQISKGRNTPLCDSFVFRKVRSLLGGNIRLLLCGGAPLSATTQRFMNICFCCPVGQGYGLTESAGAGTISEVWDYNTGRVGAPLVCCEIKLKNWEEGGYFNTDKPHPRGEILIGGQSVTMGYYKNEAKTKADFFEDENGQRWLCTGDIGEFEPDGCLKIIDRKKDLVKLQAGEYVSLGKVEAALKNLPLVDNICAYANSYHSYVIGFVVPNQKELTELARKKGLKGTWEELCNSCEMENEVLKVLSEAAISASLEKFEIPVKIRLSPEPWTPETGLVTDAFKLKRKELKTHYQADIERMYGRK
UniProt P06493, whole entry, looked up: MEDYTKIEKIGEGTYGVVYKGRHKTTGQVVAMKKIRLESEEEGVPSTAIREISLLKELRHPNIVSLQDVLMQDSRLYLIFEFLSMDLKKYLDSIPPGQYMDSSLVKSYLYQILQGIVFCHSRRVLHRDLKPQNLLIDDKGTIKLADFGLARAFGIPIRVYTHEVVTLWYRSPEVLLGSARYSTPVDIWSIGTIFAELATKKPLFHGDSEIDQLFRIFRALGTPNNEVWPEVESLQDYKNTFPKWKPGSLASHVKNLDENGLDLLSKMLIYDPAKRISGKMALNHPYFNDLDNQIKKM
UniProt O94992, whole entry, looked up: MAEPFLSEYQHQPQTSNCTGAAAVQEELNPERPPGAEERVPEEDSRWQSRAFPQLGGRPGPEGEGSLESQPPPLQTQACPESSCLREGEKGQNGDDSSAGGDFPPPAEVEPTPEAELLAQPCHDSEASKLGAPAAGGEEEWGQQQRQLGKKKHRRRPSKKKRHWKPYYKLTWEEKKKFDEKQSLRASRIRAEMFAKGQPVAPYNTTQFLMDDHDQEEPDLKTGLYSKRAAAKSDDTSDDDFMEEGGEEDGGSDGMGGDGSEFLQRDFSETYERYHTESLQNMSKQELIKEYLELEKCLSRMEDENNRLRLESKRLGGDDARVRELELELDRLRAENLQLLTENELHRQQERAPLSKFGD
UniProt O95999: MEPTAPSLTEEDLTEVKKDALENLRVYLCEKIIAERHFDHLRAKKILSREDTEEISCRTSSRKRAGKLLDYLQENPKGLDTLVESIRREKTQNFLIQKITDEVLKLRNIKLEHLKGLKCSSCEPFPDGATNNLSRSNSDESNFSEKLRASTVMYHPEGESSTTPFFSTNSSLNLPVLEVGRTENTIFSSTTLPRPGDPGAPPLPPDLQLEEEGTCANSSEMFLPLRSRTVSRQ
UniProt P04080: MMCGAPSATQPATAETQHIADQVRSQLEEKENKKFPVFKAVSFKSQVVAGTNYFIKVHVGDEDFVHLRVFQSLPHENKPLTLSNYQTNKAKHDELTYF
UniProt O95782: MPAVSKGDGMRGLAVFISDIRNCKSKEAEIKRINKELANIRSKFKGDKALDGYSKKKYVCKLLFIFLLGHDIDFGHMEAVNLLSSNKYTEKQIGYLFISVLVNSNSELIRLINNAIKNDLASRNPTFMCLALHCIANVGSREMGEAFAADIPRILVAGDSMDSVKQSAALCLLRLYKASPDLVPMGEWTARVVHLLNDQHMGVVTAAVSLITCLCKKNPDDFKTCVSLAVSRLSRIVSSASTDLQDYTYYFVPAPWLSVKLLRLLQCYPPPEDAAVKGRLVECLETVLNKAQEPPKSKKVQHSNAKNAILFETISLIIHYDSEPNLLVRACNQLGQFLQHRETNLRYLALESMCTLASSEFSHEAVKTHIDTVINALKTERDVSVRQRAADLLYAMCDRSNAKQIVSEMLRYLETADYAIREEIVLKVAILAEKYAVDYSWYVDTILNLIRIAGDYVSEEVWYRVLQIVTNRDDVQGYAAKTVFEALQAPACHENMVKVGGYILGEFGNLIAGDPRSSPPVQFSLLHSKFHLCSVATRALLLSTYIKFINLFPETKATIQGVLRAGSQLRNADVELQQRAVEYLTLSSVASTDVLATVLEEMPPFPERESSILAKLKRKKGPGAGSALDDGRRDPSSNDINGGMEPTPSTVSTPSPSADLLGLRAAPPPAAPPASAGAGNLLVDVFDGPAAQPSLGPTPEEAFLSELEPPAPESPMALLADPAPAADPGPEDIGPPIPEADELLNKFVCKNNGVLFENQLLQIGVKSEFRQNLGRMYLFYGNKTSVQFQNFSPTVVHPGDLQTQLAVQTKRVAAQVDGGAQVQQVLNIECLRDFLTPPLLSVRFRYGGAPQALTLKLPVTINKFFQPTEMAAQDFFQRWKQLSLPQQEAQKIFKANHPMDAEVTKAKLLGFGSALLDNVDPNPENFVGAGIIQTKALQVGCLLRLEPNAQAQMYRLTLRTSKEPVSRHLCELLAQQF
UniProt O95905: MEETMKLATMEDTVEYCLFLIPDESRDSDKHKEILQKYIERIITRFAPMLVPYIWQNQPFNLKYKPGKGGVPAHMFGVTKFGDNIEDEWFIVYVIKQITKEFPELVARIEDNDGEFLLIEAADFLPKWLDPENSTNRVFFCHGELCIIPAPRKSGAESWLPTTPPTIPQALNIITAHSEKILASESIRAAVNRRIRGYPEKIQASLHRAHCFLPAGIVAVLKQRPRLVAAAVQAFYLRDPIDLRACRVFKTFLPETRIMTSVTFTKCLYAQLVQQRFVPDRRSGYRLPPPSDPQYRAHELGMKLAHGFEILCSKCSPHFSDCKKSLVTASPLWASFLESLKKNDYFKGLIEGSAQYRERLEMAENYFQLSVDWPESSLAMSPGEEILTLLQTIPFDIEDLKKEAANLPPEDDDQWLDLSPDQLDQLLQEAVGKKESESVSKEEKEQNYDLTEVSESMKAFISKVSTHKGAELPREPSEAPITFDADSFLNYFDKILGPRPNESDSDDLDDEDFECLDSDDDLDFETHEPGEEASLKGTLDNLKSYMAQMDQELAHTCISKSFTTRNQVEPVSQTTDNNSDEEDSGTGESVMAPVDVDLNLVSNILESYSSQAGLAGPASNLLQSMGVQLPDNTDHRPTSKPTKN

Compound: COC(=O)/C=C/c1ccccc1 [methyl cinnamate]
Assay: log2 ratio of iodoacetamide-alkyne labeling of the cysteine site, DMSO over compound (competition); higher = stronger covalent engagement of the cysteine by the compound, active = 1 or more
Details: 500 µM; treatment time 1 h; system: HEK293T cell lysate
Summary of the method: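 After 1 h at ambient temperature with vehicle or electrophile (500 µM), HEK293T lysate (2 mg/mL) was labelled for 1 h with iodoacetamide alkyne and clicked to sCIP-TMT reagents. Pooled samples were trypsin-digested overnight at 37 °C, streptavidin-enriched, acid-eluted and analysed by Orbitrap Eclipse LC-MS/MS with FAIMS, then quantified in FragPipe over three replicates with duplicate channels. A cysteine's log2 competition ratio is its mean control-channel over mean compound-channel reporter intensity. Cysteines quantified in only one replicate were not included.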

log2 ratio of iodoacetamide-alkyne labeling, inactive:
CPSF4 C110 (UniProt O95639) -0.188
RPLP0 C27 (UniProt P05388) 0.328
ATP1A1 C428 (UniProt P05023) 0.277
MBD4 C268 (UniProt O95243) 0.183
ZRANB2 C74 (UniProt O95218) 0.158
BAG3 C179 (UniProt O95817) 0.438
PGM3 C200 (UniProt O95394) 0.31
UniProt O94763_C420 0.258
SOD1 C147 (UniProt P00441) -0.298
LDHA C185 (UniProt P00338) -0.0339
KIF4A C1171 (UniProt O95239) -0.11
SEC24B C1267 (UniProt O95487) 0.0903
UniProt P00519_C1100 0.318
SLC25A5 C129 (UniProt P05141) -0.0103
YEATS4 C210 (UniProt O95619) 0.236
MAP4K4 C202 (UniProt O95819) 0.708
ACSL3 C429 (UniProt O95573) 0.118
UniProt O96028_C1102 0.151
BAG3 C151 (UniProt O95817) 0.151
UniProt P06493_C119 0.0639
SEC24D C824 (UniProt O94855) 0.181
UniProt O94822_C237 0.259
UniProt O96028_C1324 0.16
ZRANB2 C88 (UniProt O95218) 0.153
ACSL3 C450 (UniProt O95573) 0.0373
HEXIM1 C122 (UniProt O94992) -0.0421
BCL10 C119 (UniProt O95999) 0.317
UniProt O94826_C475 0.133
PCNT C563 (UniProt O95613) -0.114
LDHB C294 (UniProt P07195) 0.0848
PRPF6 C739 (UniProt O94906) 0.148
UniProt O94822_C186 0.0111
CSTB C3 (UniProt P04080) 0.273
MTA2 C495 (UniProt O94776) 0.122
AP2A1 C970 (UniProt O95782) 0.158
ECD C557 (UniProt O95905) 0.192
TK1 C206 (UniProt P04183) 0.174

A run of entries from further up:
log2 ratio of iodoacetamide-alkyne labeling, inactive:
CPSF4 C110 (UniProt O95639) -0.188
RPLP0 C27 (UniProt P05388) 0.328
